Data: paper PMC7819943, “Rice protein-binding microarrays: a tool to detect cis-acting elements near promoter regions in rice”
The other results are listed elsewhere or left out.

Target: T1, OsSMF1 (Oryza sativa, UniProt Q6ZLB0 1-436)
T1 sequence: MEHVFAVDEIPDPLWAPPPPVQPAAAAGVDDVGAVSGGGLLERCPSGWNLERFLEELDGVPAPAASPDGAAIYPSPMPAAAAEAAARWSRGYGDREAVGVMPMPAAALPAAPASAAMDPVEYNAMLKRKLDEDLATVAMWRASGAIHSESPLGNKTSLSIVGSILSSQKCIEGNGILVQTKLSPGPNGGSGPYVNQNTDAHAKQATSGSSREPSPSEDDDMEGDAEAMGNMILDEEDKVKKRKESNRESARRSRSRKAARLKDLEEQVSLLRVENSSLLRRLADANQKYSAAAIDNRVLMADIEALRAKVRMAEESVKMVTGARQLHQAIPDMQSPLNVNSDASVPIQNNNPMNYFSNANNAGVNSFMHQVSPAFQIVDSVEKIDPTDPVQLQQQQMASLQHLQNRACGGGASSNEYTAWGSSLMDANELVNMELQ
Assay: protein-binding microarray (RPBM); PBS, 2% BSA, 51.3 ng/ul salmon testes DNA, 50 uM zinc acetate, 200 nM TF, 25 C, 1 h; high values mean tight binding
Conditions: protein: recombinant; tags: N-terminal polyhistidine and DsRed monomer fusion (pET32a); chain copies: 2; label: CyDye5-dUTP incorporated in the synthesized complementary strand; 3' TTTTT single-stranded linker to array surface; dsDNA, one strand shown
In short: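 Transcription factors, each fused N-terminally to a polyhistidine tag and DsRed, were expressed in E. coli BL21-CodonPlus and purified on Ni–NTA. A custom Agilent array was made double-stranded by primer extension with Cy5-dUTP and blocked with 2% BSA. It was incubated with 200 nM protein in PBS, 2% BSA, salmon testes DNA and 50 µM zinc acetate at 25 °C for 1 h, then washed. The binding signal is per-feature fluorescence intensity (arbitrary units) read on an Axon 4000B scanner.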

| Sequence | binding signal |
| --- | --- |
| TGGTACAAGGATTTGTCCTGTCAACATGGCAATCCTCTGCCGGAGTCACCTAGTGCAG | 3360 fluorescence intensity (a.u.) |
| ACTTGTGTTTTGTCAGTGACACTGGCTGGCCCAGCATGCACGGAGTCACCTAGTGCAG | 3640 fluorescence intensity (a.u.) |
| GACTCAGCGGATTGGAACAAGTCAAAGTGCAACGTCAGCGCGGAGTCACCTAGTGCAG | 10000 fluorescence intensity (a.u.) |
| AGTTGATAGGAGTAGCTTGAAGAAGCAGAGACAGCTAGATCGGAGTCACCTAGTGCAG | 37600 fluorescence intensity (a.u.) |
| GACTTGATTTACAGATTTATTGACAGAGTTTTGCTAAGCTCGGAGTCACCTAGTGCAG | 4370 fluorescence intensity (a.u.) |
| ATAGGTGATGCAAAATAACCGCTCAACTAGGAGCAAACATCGGAGTCACCTAGTGCAG | 4400 fluorescence intensity (a.u.) |
| AATAGTTCGTGTGACGTTAATGGTCCCGTTCTTTGCTTCACGGAGTCACCTAGTGCAG | 3890 fluorescence intensity (a.u.) |
| AACGTAGAATCTTTTGCTTGGGGCCCTAAGAGTGACACTACGGAGTCACCTAGTGCAG | 12400 fluorescence intensity (a.u.) |
| ATAGACTAAGGTTTCACTGACATGTGCGGCCCACATGGGTCGGAGTCACCTAGTGCAG | 27100 fluorescence intensity (a.u.) |
| GATTGACTTTATGTGGGTCCCACAAATCAATTTTCACGCTCGGAGTCACCTAGTGCAG | 3520 fluorescence intensity (a.u.) |
| CTCCACTCACCGTCACCGACATGTGGACCACCCAACGTTTCGGAGTCACCTAGTGCAG | 3420 fluorescence intensity (a.u.) |
| GTCTTACTGTTTCTGATGAAACCTGTGTTAGTATCCAGCTCGGAGTCACCTAGTGCAG | 25800 fluorescence intensity (a.u.) |
| GGAGAACCCAAAGGATCCTGATGAAGTACGTGGCATATTGCGGAGTCACCTAGTGCAG | 5760 fluorescence intensity (a.u.) |
| TATGGGGCCGTGATATTCAATGTGATGTGCATACAGCATGCGGAGTCACCTAGTGCAG | 3720 fluorescence intensity (a.u.) |
| TGCTCAGGGTTTCGTCAGTGCCGTTCGGGACGTGGAATGGCGGAGTCACCTAGTGCAG | 4270 fluorescence intensity (a.u.) |
| GACCATTTCGTGCGTCGATTTGACATGCCTTTGTTGCTGTCGGAGTCACCTAGTGCAG | 3220 fluorescence intensity (a.u.) |
| TAGGAAAAGCAAAACATGGAGTGACGTGCTGGATTCTTGTCGGAGTCACCTAGTGCAG | 5350 fluorescence intensity (a.u.) |
| TTTCTTCCCCGCGCGGCAATTCCTGGCCAACACCACCGCCCGGAGTCACCTAGTGCAG | 3300 fluorescence intensity (a.u.) |
| ACCTCAAATTGCAGTACGGATTGGGTACTAGTCATCAACACGGAGTCACCTAGTGCAG | 3180 fluorescence intensity (a.u.) |
| CCCGCCGCAACAGTAAGCACGTCAGCGTGTCACGCGCCCACGGAGTCACCTAGTGCAG | 14100 fluorescence intensity (a.u.) |
| ACAGTATAAGCTATTGTTAGCTACTTGGCTTTGACAATTGCGGAGTCACCTAGTGCAG | 3280 fluorescence intensity (a.u.) |

| Sequence | binding signal |
| --- | --- |
| CACGCCGTGCCTTCCCGATCTCCTCCACGTTCTCTCCCATCGGAGTCACCTAGTGCAG | 3860 fluorescence intensity (a.u.) |
| TCCGTCACCAACGTCAGCTGCGACGTCACGCCGCCGACGTCGGAGTCACCTAGTGCAG | 13500 fluorescence intensity (a.u.) |
| CTGCAAGAGATACACCTATGTTAGCCACGTCTTTTCTGTTCGGAGTCACCTAGTGCAG | 6880 fluorescence intensity (a.u.) |
| AGAGGACATCCCTTAAAGGATGAATGGATGAATAGAGTTTCGGAGTCACCTAGTGCAG | 24900 fluorescence intensity (a.u.) |
| TACCTTCTGACGTTATCTTCTGCTTTGATTTTACGTCACACGGAGTCACCTAGTGCAG | 4750 fluorescence intensity (a.u.) |
| GGTGGGGACCACCAGGACGGACGTGTAGGGCCTCCTGAAGCGGAGTCACCTAGTGCAG | 4270 fluorescence intensity (a.u.) |
| CTTGAAGGAAAACAAGTATAAGGTTCATCCTCATCATCACCGGAGTCACCTAGTGCAG | 3270 fluorescence intensity (a.u.) |
| GTCATTTCCAGAACTAGTCATGTCCTTCGATCTGCTTGTTCGGAGTCACCTAGTGCAG | 3560 fluorescence intensity (a.u.) |
| CCCACGGTTTCCACGTCGCGTGTGCATCTGCAACTCATCTCGGAGTCACCTAGTGCAG | 7080 fluorescence intensity (a.u.) |
| TACCCCGCCGCCGCGTCCTAGATTGCCGCCGTTCCCTAAACGGAGTCACCTAGTGCAG | 3180 fluorescence intensity (a.u.) |
| CAACTAAGTAAGATTCTGAGACAATTTTATTGTTTATGCTCGGAGTCACCTAGTGCAG | 3140 fluorescence intensity (a.u.) |
| CGTCCGGGACGATGTCCACGGGTTCATCGATCCATCCGTCCGGAGTCACCTAGTGCAG | 3300 fluorescence intensity (a.u.) |
| GGAGGATCGTGTTCTGGAACACGTGCACGTTGATCTCGTTCGGAGTCACCTAGTGCAG | 3980 fluorescence intensity (a.u.) |
| AGAGCAGGTCGCCGGAACCTCTGCCTTCGACGTCCTGCACCGGAGTCACCTAGTGCAG | 25700 fluorescence intensity (a.u.) |
| GCCAGTACGTCATCCGCCAACTCATCCAAATTTGTGTTTACGGAGTCACCTAGTGCAG | 5180 fluorescence intensity (a.u.) |
| GTGGCTACAAAAGCATGTCCACGTAGGACAGGTGGGCCCCCGGAGTCACCTAGTGCAG | 18400 fluorescence intensity (a.u.) |
| TATGAAAGTTTTCGATGTGATGTAATGTGATGGAAAGTTACGGAGTCACCTAGTGCAG | 3140 fluorescence intensity (a.u.) |
| GATGTCGTATTACGTAGATCCTCGTACCAGCGTACTCCAACGGAGTCACCTAGTGCAG | 4200 fluorescence intensity (a.u.) |
| CTCCCTAGCTAGCCGCTCCTTCTCCTCTGTCGCCGGCGGCCGGAGTCACCTAGTGCAG | 3220 fluorescence intensity (a.u.) |
| TCATTGTCCATGTCATGGCCGGCGTCCTCATGGATGCAGACGGAGTCACCTAGTGCAG | 4820 fluorescence intensity (a.u.) |
| CGGGCTAGGATTTGCGTGGGCTGGGCCGGATCTGCTCGCGCGGAGTCACCTAGTGCAG | 3300 fluorescence intensity (a.u.) |

Part of the list above, set out differently.
Sequence,binding signal
CCCGCCGCAACAGTAAGCACGTCAGCGTGTCACGCGCCCACGGAGTCACCTAGTGCAG,14100 fluorescence intensity (a.u.)
ACAGTATAAGCTATTGTTAGCTACTTGGCTTTGACAATTGCGGAGTCACCTAGTGCAG,3280 fluorescence intensity (a.u.)
CACGCCGTGCCTTCCCGATCTCCTCCACGTTCTCTCCCATCGGAGTCACCTAGTGCAG,3860 fluorescence intensity (a.u.)
